Experimental findings from PubChem BioAssay AID1487 (National Center for Advancing Translational Sciences (NCATS), 2009) are described below.

This assay can be described thus: qHTS Assay for Modulators of Lamin A Splicing. Particulars: HeLa LMNA splicing GFP/RFP minigene ratio, 48 h. The essentials:
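S3 HeLa stable clones carrying a lamin A-EGFP splicing minigene plus DsRed2 were seeded at 600 cells/well in Opti-MEM with 2% FBS, pin-dosed and incubated 48 h at 37°C. Acumen cytometry (488 nm) gave the GFP/RFP total-intensity ratio.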

[1] abbreviates: measured here: RFP viability control channel.
Where [2] appears, read: measured here: GFP splicing reporter channel.

The list shows a part of the results. Shown are side measurements of this screen, not its main read-out; they come without a call. The list favours compounds with an active or inconclusive main result. Potencies come from curve fits of mixed quality, noted in brackets.

Consider `Cc1ccc(Cl)cc1N1CCN(S(=O)(=O)c2ccc(-c3cnc(C4CC4)o3)cc2)CC1`, for which the AC50 under setting [1] is 25.1 µM [rising, single point].

As for `Clc1ccc(OCc2cn3ccccc3n2)c2ncccc12`, the AC50 under setting [1] is 0.0891 µM [falling, full curve, poor fit]. Same read-out and setting: then `Cc1sc2nc(CSc3nnnn3-c3ccc(Cl)cc3)[nH]c(=O)c2c1C`, with 35.5 µM [rising, single point]; and `CN(CCC#N)C(=O)COC(=O)c1c2c(nc3ccccc13)/C(=C/c1ccco1)CC2`, with 12.6 µM [rising, single point]. On to `Cc1ccc(SCCC(=O)Nc2ccc(Br)c(C)c2)cc1`, for which the AC50 is, setting by setting: under setting [2], 20 µM [rising, single point]; under setting [1], 14.1 µM [rising, partial curve].

Regarding `C1=Nc2c(Nc3ccccc3)ncnc2Oc2ccccc21`, the AC50 under setting [1] was 25.1 µM [rising, single point]. As for `CCOc1ccc2nc(NC(=O)c3ccoc3C)sc2c1`, the AC50 under setting [2] is 2.82 µM [rising, full curve, poor fit]. As to `c1ccc(CNc2ncnc3ccc(-c4cccnc4)cc23)cc1`, the AC50 under setting [2] was 15.8 µM [falling, partial curve] and the AC50 under setting [1] is 15.8 µM [falling, partial curve]. For `O=C(CSc1nc(-c2ccccc2)c(-c2ccccc2)[nH]1)Nc1nccs1`, the AC50 under setting [1] was 0.00447 µM [falling, full curve, poor fit].

`CCOC(=O)C1=C(c2ccccc2)N(C)C(=O)NC1c1ccc(OC(F)F)c(OC)c1` (centres undefined): under setting [2], the AC50 is 12.6 µM [rising, single point]. With `Cc1ccc(NC(=O)CN(C)C(=S)NC2CC2)cc1`, the AC50 under setting [2] is 0.02 µM [falling, full curve, poor fit].

On to `COc1cccc(CNC(=O)c2ccc(CNS(=O)(=O)c3ccc(C)cc3)cc2)c1`, for which the AC50 under setting [2] was 35.5 µM [falling, partial curve].

Take `COCCCNC(=O)c1cc(Sc2ccc(F)cc2)nc2ccccc12`: the AC50 under setting [1] was 35.5 µM [rising, partial curve, poor fit]. On to `COc1cccc2cc(/C(=N/O)c3ccc(Br)cc3)oc12`, for which the AC50 is 35.5 µM [falling, partial curve] under setting [2] and 35.5 µM [falling, partial curve] under setting [1]. `Cc1ccc(S(=O)(=O)N2CCC(=O)N(CCOCc3ccc(Cl)cc3)CC2)cc1`: the AC50 under setting [1] is 11.2 µM [rising, partial curve]. Same read-out and setting: under `Cc1ccc(S(=O)(=O)NCCC(c2ccccc2)c2ccco2)cc1` (centres undefined) stands 12.6 µM [rising, partial curve]; under `O=c1[nH]c(SCc2ccccc2[N+](=O)[O-])nc2nc[nH]c12`, 35.5 µM [falling, single point]. As to `O=C(O)c1nc2cc(Cl)c(Cl)cc2[nH]c1=O`, the AC50 is 20 µM [rising, partial curve] under setting [2] and 25.1 µM [rising, partial curve] under setting [1]. `Cc1ccc(CNC(=O)Cn2c(=O)ccc3cc(S(=O)(=O)N4CCC(C)CC4)ccc32)cc1`: the AC50 is 0.0398 µM [falling, full curve, poor fit] under setting [2] and 0.0282 µM [falling, full curve] under setting [1].

Consider `CC1=C(C(=O)Nc2ccccc2)C(c2ccc(C)cc2)N=C(Nc2nc3ccccc3o2)N1` (centres undefined), for which the AC50 under setting [1] was 15.8 µM [falling, partial curve]. `CCC(CO)NCCNC(CC)CO` (centres undefined): under setting [1], the AC50 is 0.282 µM [falling, full curve, poor fit]. Same read-out and setting: then `Cc1cc(N/N=C/c2cccc(Br)c2)nc2ccccc12`, with 11.2 µM [rising, partial curve].

Regarding `Cc1ccc(NC(=O)C(C)OC(=O)c2ccc(NS(=O)(=O)c3ccc(F)c(F)c3)cc2)cc1` (centres undefined), the AC50 runs as follows: under setting [2], 11.2 µM [rising, partial curve]; under setting [1], 15.8 µM [rising, partial curve]. `Cn1cc(CNCc2ccc(-n3cccn3)cc2)c(-c2ccccc2F)n1`: the AC50 is 35.5 µM [falling, single point] under setting [2] and 0.00501 µM [falling, full curve, poor fit] under setting [1]. For `O=C(/C=C/c1ccco1)Nc1cccc(NC(=O)/C=C/c2ccco2)n1`, the AC50 under setting [1] was 35.5 µM [rising, single point].

As to `O=C(Nc1nccs1)c1csc2c1CCCC2`, the AC50 under setting [1] was 15.8 µM [rising, partial curve, poor fit]. For the molecule `CCOC(=O)C1=C(c2ccccc2)N=c2s/c(=C\c3ccc(O)cc3)c(=O)n2C1c1cccs1` (centres undefined), the AC50 under setting [2] was 25.1 µM [falling, single point]. Take `CCOC(=O)c1ccc(NC(=O)c2cccc(S(=O)(=O)N3CCOCC3)c2)cc1`: the AC50 is 14.1 µM [rising, partial curve] under setting [2] and 17.8 µM [rising, single point] under setting [1]. For the molecule `COc1cc(/C=N/O)cc(Br)c1OCc1cccc(Cl)c1`, the AC50 under setting [2] is 28.2 µM [falling, single point] and the AC50 under setting [1] is 22.4 µM [falling, single point]. Take `Cc1ccc(S(=O)(=O)Nc2ccc(Cl)cc2)cc1NC(=O)c1cc2c(s1)CCCC2`: the AC50 under setting [1] was 20 µM [rising, partial curve, poor fit]. `Cc1cccc(-n2nnc(C(=O)NC3CCCc4ccccc43)c2N)c1` (centres undefined): the AC50 is, setting by setting: under setting [2], 17.8 µM [falling, single point]; under setting [1], 35.5 µM [falling, single point]. Take `O=C(Cc1ccccc1)NNc1ccc2ccccc2c1`: under setting [1], the AC50 is 4.47 µM [rising, full curve, poor fit].

Consider `CCOc1ccc(C(=O)NCC(=O)N2CCC(C)CC2)cc1OCC`, for which the AC50 under setting [2] is 0.501 µM [falling, partial curve, poor fit]. On the same count and under the same terms, then `COc1ccc(C(=O)NNC(=O)c2ccc(S(=O)(=O)N3CC(C)OC(C)C3)cc2)cc1` (centres undefined), with 6.31 µM [rising, single point]. For the molecule `Cc1cc(C(=O)NC2Cc3ccccc3C2)c(C)o1`, the AC50 under setting [2] was 0.0224 µM [rising, full curve, poor fit] and the AC50 under setting [1] was 1.78 µM [rising, full curve, poor fit].

For the molecule `O=C(C1CC1)N1N=C(C2CCCCC2)CC1(O)C(F)(F)F` (centres undefined), the AC50 under setting [1] is 5.62 µM [falling, single point]. With `COc1ccccc1-c1ccc2ncnc(N(C)Cc3ccco3)c2c1`, the AC50 runs as follows: under setting [2], 15.8 µM [falling, partial curve]; under setting [1], 11.2 µM [falling, partial curve].
